In this data set the target is T1, Fur (Corynebacterium glutamicum ATCC13032) (UniProt Q8NNC4).
T1 sequence (looked up, limits assumed): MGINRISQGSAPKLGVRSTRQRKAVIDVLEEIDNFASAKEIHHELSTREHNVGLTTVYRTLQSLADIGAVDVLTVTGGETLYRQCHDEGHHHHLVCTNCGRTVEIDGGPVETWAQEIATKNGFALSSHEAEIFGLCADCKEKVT
Briefly: EMSA. The note with it: Fur 0-14 ug, 90 ng probe, 20 uL, 1 mM EDTA, no metal added, EMSA: 1x binding buffer (10 mM Tris, 50 mM KCl, 1 mM DTT, pH 7.5), plus 1 uL 1 mM KCl, 2.5% glycerol in 20 uL, room temperature 30 min, recombinant protein, protein details: His6 (pET28a, N-terminal), probe letters rebuilt from the primers and the genome.

For at least one entry, the source does not settle the construct or the ends of the probe. Where a protein sequence is shown, tags need not be part of it.

As for “GCCCGCAATAATGTTGAACGTGTCATCGTCGAGGCTACTGTCTGCGATGAGCAGGCCATCGGTGTGCGTGATTGTTGCGGATGCAAGATGCCGGTGGAGATGGCAGAAATGCTCCGCTAAGTTCTCTTCGATTGCGCGTTGTAATTTACCGAGGTCCTTCATAAAACTTCATTTTAGGTATCACAAAGGTGCCATAAGTCGCACCCTTTGTTAGACTGCAAAACTCGCCTTTTGGTTCCCTCAAAAGCAAATCTGAGAATCTTCCCACTTTCACTAGTCTTATCCCGGACCAGCGCACTACAGTTCCTGGATTAGGGGATGTAAAGATCTAAAGCTGGGGGAATACATGG (double strand) [T7SS promoter (PT7SS)]”, the binding result is given as “binds”.

Source of the values: PMC12607788.
